According to the supplement of paper PMC10338343:
± gives the standard deviation. The list shows a part of the results, in another mix than the full data. The uncertainty is large for many entries.

tested on: EfPiwi piRISC loaded with piRNA #1 (26 nt); test: pre-steady-state target cleavage rate (min^-1); guide: piRNA #1 5'p-UGAGGUAGUAGGUUGUAUAGUAUCCA; MIWI and MILI are mouse PIWI proteins and EfPiwi is from a freshwater sponge; tags in brackets are library labels; higher = faster piRNA-guided slicing of the target; conditions: auxiliary factor: 500 nM Ephydatia muelleri Gtsf1
In short: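 For Cleave-'n-Seq, a transcribed, DNA-blocked target RNA library […] met 1 nM active affinity-purified piRISC with one synthetic guide at 33 °C for 0–8 or 0–960 min in HEPES–potassium acetate buffer, with or without 500 nM GTSF1 partner protein. Uncleaved targets were sequenced and normalised to depth and weakly complementary targets, with three trials pooled and k3 capped at 0.0001 min^-1. A burst-and-steady-state fit supplied the pre-steady-state cleavage rate.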

How did the “pre-steady-state target cleavage rate” value turn out when GGAGAGGAUACUUAACAACCUACUACCUCA was run?
Its value is 0.00417 ± 0.0044.

For GGAGACCUAAGUAUACAACCUACUACCACA, which “pre-steady-state target cleavage rate” value is on record?
Its value is 0.00204 ± 0.0041.

How did the “pre-steady-state target cleavage rate” value turn out when GGAGACCUAACUAUAGAUCCUACUACCUCA was run?
Its value is 0.0011 ± 0.0062.

For GGAGACCUAACUAUACAACCUACUAACUCA, which “pre-steady-state target cleavage rate” value is on record?
The value was 0.00332 ± 0.0043.

GGAGACCUAACUAUACAACGUACUACCUGA was tested. Which “pre-steady-state target cleavage rate” value did it give?
The value was 0.00227 ± 0.0037.

Which “pre-steady-state target cleavage rate” value does the source give for GGAGACCUAUCUAUACAACCUACUACCACA here?
Its value is 0.00226 ± 0.0029.

With GGAGACCUUAGUAUACAACCUACUACCACA as the sequence, how does the “pre-steady-state target cleavage rate” value read?
The value was 0.00359 ± 0.0037.

With GGAGACCUAUGUAUAGAACCUACUACCUCA as the sequence, how does the “pre-steady-state target cleavage rate” value read?
The value was 0.00113 ± 0.0039.

How did the “pre-steady-state target cleavage rate” value turn out when “GGAGACCUAUCUAUACAACCUACUACCUCU [g2:g20:cont:t1U]” was run?
Its value is 0.993 ± 0.45.

GGAGAGGAUACUAUACAAGGAACUACCUCA was tested. Which “pre-steady-state target cleavage rate” value did it give?
The value was 0.00121 ± 0.0054.

With GGAGACCAUACAAUACAACGUACUACCUCA as the sequence, how does the “pre-steady-state target cleavage rate” value read?
Its value is 0.00181 ± 0.0031.

With GGAGACCUAUGUUACAACCUACUACCUCA as the sequence, how does the “pre-steady-state target cleavage rate” value read?
Its value is 0.00291 ± 0.0044.

GGAGACCUAUCUAUACAACGUACUUCCUCA was tested. Which “pre-steady-state target cleavage rate” value did it give?
Its value is 0.001 ± 0.0028.

Which “pre-steady-state target cleavage rate” value does the source give for “GGAGACCAUACUAUACAACCUACUACCUCG [g2:g23:cont:t1G]” here?
Its value is 0.0177 ± 0.0074.

GGAGACGAUACAAUACAACCUUCUACCUCA was tested. Which “pre-steady-state target cleavage rate” value did it give?
Its value is 0.00327 ± 0.0022.

For GGAGACCUUACUAUACAACCUAUUACCUCA, which “pre-steady-state target cleavage rate” value is on record?
The value was 0.0052 ± 0.0025.

With GGAGACCUAUGAUAUGUUGCUACUGCCUCA as the sequence, how does the “pre-steady-state target cleavage rate” value read?
Its value is 0.000776 ± 0.0066.

Which “pre-steady-state target cleavage rate” value does the source give for GGAGACGAUACUAUACAACUCUACUACCUCA here?
The value was 0.00452 ± 0.0031.

With GGAGACGAUACUAAACAACCUACUAGCUCA as the sequence, how does the “pre-steady-state target cleavage rate” value read?
The value was 0.0015 ± 0.0026.

Which “pre-steady-state target cleavage rate” value does the source give for GGAGUGGAUACUAUACAACGUUCUACCUCA here?
Its value is 0.00461 ± 0.0022.

For GGAGACCUAUCAAUACAACCUAGUACCUCA, which “pre-steady-state target cleavage rate” value is on record?
Its value is 0.000538 ± 0.005.

For GGAGAGGAUACUUUAGAACCUACUACCUCA, which “pre-steady-state target cleavage rate” value is on record?
The value was 0.00155 ± 0.0029.

With GGAGACCUAUGAUAUGUUGCUACUACUCUCA as the sequence, how does the “pre-steady-state target cleavage rate” value read?
The value was 0.000936 ± 0.0071.

Which “pre-steady-state target cleavage rate” value does the source give for GGAGACCUAUGAUAUGUUCCUAUCUACCUCA here?
Its value is 0.000124 ± 0.019.

Which “pre-steady-state target cleavage rate” value does the source give for GGAGACGAUACUAUACAACCUACUACCUA here?
Its value is 0.104 ± 0.038.

For GGAGACCUAUGAUAUGUUCCUGCUACCUCA, which “pre-steady-state target cleavage rate” value is on record?
The value was 0.000164 ± 0.011.

For GGAGACCAUACUAAACAACCUACUACGUCA, which “pre-steady-state target cleavage rate” value is on record?
The value was 0.00226 ± 0.0033.

Which “pre-steady-state target cleavage rate” value does the source give for GGAGACCUAACUAUACAACCUAGAACCUCA here?
The value was 0.000316 ± 0.0088.

With GGAGUGGAUACUAUACAACCUACUACCUUA as the sequence, how does the “pre-steady-state target cleavage rate” value read?
The value was 0.276 ± 0.095.

How did the “pre-steady-state target cleavage rate” value turn out when GGAGACGAUACUAUACAACCAACUACCUGA was run?
The value was 0.00427 ± 0.0022.

Which “pre-steady-state target cleavage rate” value does the source give for GGAGACGAUUCUAUACAACCUACUACCUGA here?
Its value is 0.00463 ± 0.0026.

How did the “pre-steady-state target cleavage rate” value turn out when GGAGACCAUACUAUACAACAUACUACCUCA was run?
The value was 0.00326 ± 0.0021.

How did the “pre-steady-state target cleavage rate” value turn out when GGAGUCCUUACUAUACAACCUACUACCUCA was run?
Its value is 0.0555 ± 0.021.

How did the “pre-steady-state target cleavage rate” value turn out when GGAGUGCAUACAAUACAACCUACUACCUCA was run?
Its value is 0.0102 ± 0.0044.

With GGAGACCAUACUAUAGAAGCUACUACCUCA as the sequence, how does the “pre-steady-state target cleavage rate” value read?
Its value is 0.00159 ± 0.0058.

With GGAGACCAUACUAUACUACCUUCUACCUCA as the sequence, how does the “pre-steady-state target cleavage rate” value read?
Its value is 0.00169 ± 0.0062.

Which “pre-steady-state target cleavage rate” value does the source give for “GGAGACCUUACUAUACAAGGAUGAUGGAGA [g13:g22:cont:t1A]” here?
Its value is 0.000257 ± 0.011.

For GGAGACCUAUCAAUACAUCCUACUACCUCA, which “pre-steady-state target cleavage rate” value is on record?
Its value is 0.00304 ± 0.003.

GGAGACCUUACCUAUACAACCUACUACCUCA was tested. Which “pre-steady-state target cleavage rate” value did it give?
The value was 0.0117 ± 0.0057.

Which “pre-steady-state target cleavage rate” value does the source give for GGAGACCAUACUAUUGAACCUACUACCUCA here?
The value was 0.00213 ± 0.0029.
